The values below come from publication PMC12045374.

The chains behind the UniProt entries cited, without tags or fusion partners.
UniProt P18615: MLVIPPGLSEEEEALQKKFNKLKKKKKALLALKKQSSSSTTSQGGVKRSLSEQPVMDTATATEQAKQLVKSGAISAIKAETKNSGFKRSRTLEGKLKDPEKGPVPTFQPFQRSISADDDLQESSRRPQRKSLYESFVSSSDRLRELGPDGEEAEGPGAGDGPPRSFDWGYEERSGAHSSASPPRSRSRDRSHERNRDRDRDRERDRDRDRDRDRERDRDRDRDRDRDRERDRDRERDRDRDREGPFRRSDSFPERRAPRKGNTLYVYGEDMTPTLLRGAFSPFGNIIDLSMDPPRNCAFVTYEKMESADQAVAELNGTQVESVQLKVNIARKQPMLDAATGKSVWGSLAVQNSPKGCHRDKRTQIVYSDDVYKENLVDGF
UniProt Q12824: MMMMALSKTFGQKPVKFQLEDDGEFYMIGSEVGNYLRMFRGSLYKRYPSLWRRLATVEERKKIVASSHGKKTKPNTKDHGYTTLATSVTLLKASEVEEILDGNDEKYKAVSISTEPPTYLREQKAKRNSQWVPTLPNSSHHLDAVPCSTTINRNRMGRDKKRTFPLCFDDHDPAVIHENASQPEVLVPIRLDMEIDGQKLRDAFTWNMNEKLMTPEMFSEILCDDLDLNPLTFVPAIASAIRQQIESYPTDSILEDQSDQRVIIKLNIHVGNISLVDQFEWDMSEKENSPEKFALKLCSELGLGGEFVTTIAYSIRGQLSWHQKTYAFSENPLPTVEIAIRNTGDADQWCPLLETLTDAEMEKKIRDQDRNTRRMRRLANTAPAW
UniProt Q15022: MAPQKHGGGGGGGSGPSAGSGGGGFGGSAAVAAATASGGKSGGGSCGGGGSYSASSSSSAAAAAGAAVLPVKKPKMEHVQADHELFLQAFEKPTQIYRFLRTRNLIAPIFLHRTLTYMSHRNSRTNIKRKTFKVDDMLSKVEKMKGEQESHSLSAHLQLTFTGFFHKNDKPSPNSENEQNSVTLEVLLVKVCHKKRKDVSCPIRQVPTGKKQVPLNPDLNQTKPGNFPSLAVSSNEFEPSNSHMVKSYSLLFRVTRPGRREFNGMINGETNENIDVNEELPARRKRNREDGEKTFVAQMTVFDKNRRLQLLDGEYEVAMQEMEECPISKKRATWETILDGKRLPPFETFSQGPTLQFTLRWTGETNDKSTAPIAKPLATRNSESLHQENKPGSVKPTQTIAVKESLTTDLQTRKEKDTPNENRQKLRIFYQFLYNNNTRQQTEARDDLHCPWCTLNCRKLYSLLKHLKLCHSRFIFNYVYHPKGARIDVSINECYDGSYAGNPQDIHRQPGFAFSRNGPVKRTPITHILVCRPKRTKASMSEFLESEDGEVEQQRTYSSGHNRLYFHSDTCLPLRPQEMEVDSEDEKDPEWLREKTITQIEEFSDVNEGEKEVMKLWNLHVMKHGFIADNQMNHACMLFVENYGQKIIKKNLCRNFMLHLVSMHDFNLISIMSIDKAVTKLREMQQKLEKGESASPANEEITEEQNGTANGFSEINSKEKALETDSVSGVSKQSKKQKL

These are yes or no findings as the source states them, for the method shown. In cells and extracts the contact can be indirect. Here binding means that the protein was enriched with, or labelled near, the bait; the list need not be complete.

The assay has as its target Negative Elongation Factor E (NELFE) (human (endogenous in Hep3B, Huh1, HLE and HCC patient tissue)) (UniProt P18615). Briefly: affinity purification with mass spectrometry; immunoprecipitation of NELFE from fractionated nuclear lysates of Hep3B and Huh1; proteins found only in the nucleus, not the cytoplasm, were selected.

For the substance SMARCB1 (from UniProt Q12824 1-385), the binding entry is reported as “binds”. Under SUZ12 (from UniProt Q15022 1-739) stands “binds”.
